This note sets out measurements from article PMC1888729.

Chains of the proteins cited; added tags and fusions are not shown. Lines headed by an entry give the natural chain unless they say otherwise; changes in a name come on top.
UniProt Q9UHX1: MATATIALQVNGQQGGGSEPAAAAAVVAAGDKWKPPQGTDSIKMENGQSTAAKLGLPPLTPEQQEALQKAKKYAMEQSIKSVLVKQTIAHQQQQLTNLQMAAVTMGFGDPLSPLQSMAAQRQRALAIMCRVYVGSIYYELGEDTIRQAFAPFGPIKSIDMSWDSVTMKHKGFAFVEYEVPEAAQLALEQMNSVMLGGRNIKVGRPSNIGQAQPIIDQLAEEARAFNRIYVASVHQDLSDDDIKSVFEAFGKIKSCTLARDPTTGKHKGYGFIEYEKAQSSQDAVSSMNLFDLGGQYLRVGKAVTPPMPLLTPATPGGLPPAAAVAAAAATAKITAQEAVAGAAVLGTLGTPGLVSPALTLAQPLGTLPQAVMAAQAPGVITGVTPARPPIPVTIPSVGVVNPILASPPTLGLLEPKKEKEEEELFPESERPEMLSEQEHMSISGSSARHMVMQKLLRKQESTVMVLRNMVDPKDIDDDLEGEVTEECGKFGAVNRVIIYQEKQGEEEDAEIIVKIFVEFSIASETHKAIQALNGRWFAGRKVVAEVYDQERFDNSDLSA

These are yes or no findings as the source states them, for the method shown. Binding seen in cells or lysates may run through a third protein. A yes stands for co-enrichment or nearness to the bait. Other partners may have been found. No binding means not detected with the bait.

The experiment concerns the target FLAG-V5-tagged PUF60 (PUF60L) (human) (UniProt Q9UHX1). Kind of experiment: affinity purification with mass spectrometry; F-V5-PUF60L precipitated from HeLa S3 nuclear extract on ANTI-FLAG M2 Affinity Gel, 1 h at 4°C, IP buffer (20 mM Hepes pH 8, 150 mM KCl, 1.5 mM MgCl2); washes with 250 mM KCl, 0.05% Triton X-100, one with 200 ng/ml RNase A; digested on the beads, or eluted with FLAG peptide and gel bands excised; only proteins found in both experiments and absent from control HeLa extract are listed.

B1: SF1 (protein, UniProt Q15637 1-639)
chain: MATGANATPLDFPSKKRKRSRWNQDTMEQKTVIPGMPTVIPPGLTREQERAYIVQLQIEDLTRKLRTGDLGIPPNPEDRSPSPEPIYNSEGKRLNTREFRTRKKLEEERHNLITEMVALNPDFKPPADYKPPATRVSDKVMIPQDEYPEINFVGLLIGPRGNTLKNIEKECNAKIMIRGKGSVKEGKVGRKDGQMLPGEDEPLHALVTANTMENVKKAVEQIRNILKQGIETPEDQNDLRKMQLRELARLNGTLREDDNRILRPWQSSETRSITNTTVCTKCGGAGHIASDCKFQRPGDPQSAQDKARMDKEYLSLMAELGEAPVPASVGSTSGPATTPLASAPRPAAPANNPPPPSLMSTTQSRPPWMNSGPSESRPYHGMHGGGPGGPGGGPHSFPHPLPSLTGGHGGHPMQHNPNGPPPPWMQPPPPPMNQGPHPPGHHGPPPMDQYLGSTPVGSGVYRLHQGKGMMPPPPMGMMPPPPPPPSGQPPPPPSGPLPPWQQQQQQPPPPPPPSSSMASSTPLPWQQNTTTTTTSAGTGSIPPWQQQQAAAAASPGAPQMQGNPTMVPLPPGVQPPLPPGAPPPPPPPPPGSAGMMYAPPPPPPPPMDPSNFVTMMGMGVAGMPPFGMPPAPPPPPPQN
In the case of B1, the binding entry is recorded as “no binding”.
